The source of these data is BindingDB's records for doi:10.1080/14756360400015256 (Cardiff University, 2005).

In this assay the target is T1, Aromatase (Homo sapiens, UniProt P11511).
T1 sequence (P11511 whole entry): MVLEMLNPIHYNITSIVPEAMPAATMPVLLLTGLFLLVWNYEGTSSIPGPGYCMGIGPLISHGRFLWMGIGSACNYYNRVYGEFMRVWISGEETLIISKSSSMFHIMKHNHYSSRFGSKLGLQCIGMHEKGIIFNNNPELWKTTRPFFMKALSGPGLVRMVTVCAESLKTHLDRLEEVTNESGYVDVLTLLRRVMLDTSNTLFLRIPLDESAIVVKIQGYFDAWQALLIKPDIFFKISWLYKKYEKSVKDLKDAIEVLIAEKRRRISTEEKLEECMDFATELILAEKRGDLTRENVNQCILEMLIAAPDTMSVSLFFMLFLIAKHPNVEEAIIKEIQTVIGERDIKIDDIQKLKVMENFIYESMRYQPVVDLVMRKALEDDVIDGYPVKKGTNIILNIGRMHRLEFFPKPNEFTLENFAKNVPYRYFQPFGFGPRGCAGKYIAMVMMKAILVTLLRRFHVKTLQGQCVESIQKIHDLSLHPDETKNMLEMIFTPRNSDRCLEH
Conditions: 37 °C.

`CC(C)(C#N)c1cc(Cn2cncn2)cc(C(C)(C)C#N)c1` [NSC719344] returned an IC50 of 600 nM.
